This data set concerns Male Wistar rats. Put plainly: Influence of D-psicose diet on liver weight and composition (16-week feeding). It is filed as in vivo, rat. The settings on record: 16 weeks. On the procedure: Twenty-four male Wistar rats of age 3 weeks were fed ad libitum under a condition that the bright cycle was at a temperature of 25° C. and a humidity of 50 to 70% from 8:00 am to 20:00 pm, for preliminary feeding for one week. Subsequently, the rats were divided into 4 groups, each group consisting of 6 rats. The groups were defined a high fat/D-psicose diet (HF-P) group; a high fat/cellulose diet (HF-C) group; a low fat/D-psicose diet (LF-P) group; and a low fat/cellulose diet (LF-C) group. 20% beef fat and 5% soybean oil were used to prepare the high fat diets. 5% soybean oil was used to prepare the low fat diets. 5% D-psicose or cellulose was added to the individual diets. These rats were fed these experimental diets and water ad libitum for 16 weeks. On the last day of the experiment, the rats were decapitated and sacrificed to death, from which liver, flounder muscle and intraperitoneal fat tissues were resected. Glycogen, neutral fat and protein were assayed in the liver, while glycogen content was assayed in the flounder muscle. [table]

Consider `O=C(CO)[C@H](O)[C@H](O)[C@H](O)CO` [D-psicose], for which, under “high fat diet + 5% D-psicose”, the Body weight increment is on record as 239 ± 10 g, the Energy efficiency turned out to be 44 ± 1 mg/kcal, the Energy intake is reported as 49 ± 2 kcal/day and the Final body weight worked out at 321 ± 10 g. For the same molecule, under “low fat diet + 5% D-psicose”, the Body weight increment is 244 ± 6 g, the Energy efficiency is 45 ± 1 mg/kcal, the Energy intake was found to be 48 ± 1 kcal/day and the Final body weight was 326 ± 6 g.

The record behind these values is patent US8071558B2, “Application of D-psicose to suppression of abnormal circadian increase in blood glucose level” (Rare Sugar Production Technical Research Laboratories, LLC., priority 2005, dated 2011).
